Assay results: paper doi:10.1101/2021.06.21.449290
Results are given in words; binding and its absence hold for the method and conditions named. In cells and extracts the contact can be indirect. These calls come from enrichment with a bait or labelling near it, and not all partners need be listed.

Target: Cdh3-GFP (Xenopus)
Assay: affinity purification with mass spectrometry

Row | binding | Binder
1 | binds | p120-catenin (protein, UniProt Q8AXM9 1-859) MDEPESESPASILASVRAQEAQFELLSRALEEERRHVTAQLDRVWVTPQEPPLANGSLTRRQQDGLPFLYTPTRMEAHSVHADERYVIDDSSYKSCTLTDESRCSEIPIQTVVGYSQTLDRPYREAAGSGGAYTTVPRNYHFRGPGVDSTMPLISQSPHPGYSSLSRPNQRYRSVDPFRGPGYGPQPQVRGGGLGGSQSDLLSGRIYGSEDAYGLEDDRRSLGGFIDGPDYATTGRRGANGGDPRRRLRSYEDPLSDHFGSIPTSGSLSSLGPAPLTLAPNSGPWRHPELPEVLAMLSYTLDAVRLNAAAYLQHLSYRNEDVKREVCRLRGIPPLISLLEDPRAPIRLAACGALKNLSYGPARENKMAVKNCDGVPALARLLRRRGEGIEGRELAECVTGTLWNLSSLDSVKMELVDQALYTLTQEILVPHSGWQQDGGMQDRVEGKPRHVEWEPALVNTTGCLRNISSERSEARRKMRECEGLVDSVVHILRSEVSHGLVDSKLLENVVCLLRNISYHVHREIPHAEKYMESPQNASAETQNPSCFGVRRGKGKKASEEAVDTVDFPKQTMPAQGYDLLFQPEIVRLYISLVKSSHTPAVLEASAGAIQNLCAGNWVYGRCIRAAVRQEKGLSSLADHLTHESERVVRAICGALRNLCGDNRNRELIGKHALNSLVARLSSSSAQSSALSEDTNVCVINTIHEVISGNLEAAKRLRESQGIERLVLINKGGGRSEREIRAAGFCLQTIWGYKELRRPLEKDGWKKSDFQVSTAATSSVQGYDDSTLPLIDRNLKNEKKSVNADIPLNDFIADQFTHNGDSSNRLPTRSDELSELDPLKECSVSAGGSLNLGDAEDQRV
2 | binds | Plakoglobin (protein, UniProt P30998 1-738) MDLGDVVEMPMKVTEWQKTYTYDSGINSGINTSVPSLNGKMVIEDDSLAYPNSYTTVKTTTYTQQQNPDMESHLNMTRAQRVRAAMYPETVEDHSYLFSTQIEGQQTNVQKLAEPSQMLKSAIMHLINYQDDAELATRAIPELTKLLNDEDPMVVNKASMIVNQLSKKEASRKALMQSPQIVAAIVRTMQHTSDMDTARCTTSILHNLSHHREGLLSIFKSGGIPALVRMLSSPVESVLFYAITTLHNLLLYQEGAKMAVRLADGLQKMVPLLNKNNPKFLAITTDCLQLLAYGNQESKLIILGNGGPQGLVQIMRNYNYEKLLWTTSRVLKVLSVCPSNKPAIVEAGGMQALGKHLTSNSPRLVQNCLWTLRNLSDVATKQEGLDNVLKILVNQLSSDDVNVLTCATGTLSNLTCNNGRNKTLVTQSNGVESLIHTILRASDKDDIAEPAVCAMRHLTSRHQDAEVAQNSVRLHYGIPAIVKLLNPPYQWPLVKATIGLIRNLALCPANHAPLYDAGVIPRLVQLLVKSHQDAQRHAASGTQQPYTDGVKMEEIVEGCTGALHILARDPVNRMDIYKLNTIPLFVQLLYSPVENIQRVSSGVLCELAQDKEAADTIDAEGASAPLMELLHSRNEGIATYAAAVLFRISEDKNADYRKRVSVELTNAIFRQDPAAWEAAQSMIPLNDPYSDEMENYRAMYPEDIPLEPMGGDMDVEYAMDGYSDHPGRGHYADNHMMA
